Data source: PubChem BioAssay AID1259425 (University of Nebraska Medical Center, 2018)
Shown is a random part of about 14,000 deposited reagents. Reagents against one gene are numbered here. The record does not give: the time to read-out.

- Test: 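Seek colon cancer weak points whose silencing resembles KSR1 loss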 (primary screen)
- System: HCT116 human colon cancer cells
- Knock-down reagent: siRNA pool against human genes, 50 nM siRNA
- Measured: 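After 50 nM siRNA pool, branched-DNA assay measures six marker transcripts per well, minus blank, normalised to the geometric mean of two housekeeping transcripts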
- Direction: BNIP3L mRNA: higher = more BNIP3L transcript after knockdown; NDRG1 mRNA: higher = more NDRG1 transcript after knockdown; BNIP3 mRNA: higher = more BNIP3 transcript after knockdown; ALDOC mRNA: higher = more ALDOC transcript after knockdown; ACSL5 mRNA: higher = more ACSL5 transcript after knockdown

Target gene	pool no.	BNIP3L mRNA, set 1	NDRG1 mRNA, set 1	BNIP3 mRNA, set 1	ALDOC mRNA, set 1	ACSL5 mRNA, set 1
TMEM234 (transmembrane protein 234)	1	0.13	0.196	0.231	0.0246	0.147
PCDHGA7 (protocadherin gamma subfamily A, 7)	1	0.0984	0.296	0.241	0.0498	0.23
ELMO2 (engulfment and cell motility 2)	1	0.0546	0.128	0.236	0.0135	0.214
KIT (KIT proto-oncogene, receptor tyrosine kinase)	1	0.131	0.433	0.558	0.0155	0.19
CYREN (cell cycle regulator of NHEJ)	1	0.085	0.131	0.225	0.0331	0.0995
COL11A1 (collagen type XI alpha 1 chain)	1	0.158	0.457	0.255	0.0443	0.156
SF3A3 (splicing factor 3a subunit 3)	1	0.168	0.372	0.187	0.0356	0.153
KRT85 (keratin 85)	1	0.15	0.188	0.447	0.0212	0.156
NRDE2 (NRDE-2, necessary for RNA interference, domain containing)	1	0.119	0.224	0.506	0.0556	0.287
ODC1 (ornithine decarboxylase 1)	1	0.0447	0.179	0.192	0.0122	0.145
LRRC40 (leucine rich repeat containing 40)	1	0.351	0.791	0.403	0.079	0.301
DCTN1 (dynactin subunit 1)	1	0.128	0.211	0.213	0.0212	0.316
SLC38A3	1	0.0932	0.382	0.387	0.00712	0.242
TCF19 (transcription factor 19)	1	0.133	0.0926	0.207	0.00309	0.107
CPLX2 (complexin 2)	1	0.0571	0.209	0.236	0.0166	0.165
CPLX2 (complexin 2)	2	0.0404	0.0841	0.342	0.0137	0.213
TPPP (tubulin polymerization promoting protein)	1	0.182	0.196	0.457	0.0499	0.125
CRABP1 (cellular retinoic acid binding protein 1)	1	0.0501	0.181	0.349	0.0139	0.14
CDKN1B (cyclin dependent kinase inhibitor 1B)	1	0.0895	0.0347	0.253	0.00628	0.341
CLDN9 (claudin 9)	1	0.0721	0.181	0.293	0.0387	0.132
PEX3 (peroxisomal biogenesis factor 3)	1	0.091	0.233	0.267	0.0482	0.176
TRIT1 (tRNA isopentenyltransferase 1)	1	0.0575	0.247	0.264	0.0231	0.168
CCL20 (C-C motif chemokine ligand 20)	1	0.0525	0.127	0.196	0.0162	0.152
CD302 (CD302 molecule)	1	0.0504	0.098	0.21	0.0211	0.14
NGF (nerve growth factor)	1	0.0762	0.077	0.225	0.0408	0.267
NPAP1 (nuclear pore associated protein 1)	1	0.0992	0.356	0.506	0.0147	0.156
KLHDC4 (kelch domain containing 4)	1	0.0762	0.153	0.358	0.0265	0.15
PORCN (porcupine O-acyltransferase)	1	0.0581	0.216	0.228	0.0175	0.115
CSN1S1 (casein alpha s1)	1	0.134	0.296	0.415	0.0191	0.163
TUBB4A (tubulin beta 4A class IVa)	1	0.124	0.17	0.238	0.0164	0.194
IMPA2 (inositol monophosphatase 2)	1	0.116	0.335	0.288	0.0648	0.227
KLHL22 (kelch like family member 22)	1	0.117	0.142	0.259	0.0323	0.095
ECM1 (extracellular matrix protein 1)	1	0.0382	0.109	0.238	0.00859	0.0642
USO1 (USO1 vesicle transport factor)	1	0.154	0.152	0.315	0.0189	0.195
PCDHGA3 (protocadherin gamma subfamily A, 3)	1	0.103	0.099	0.361	0.0264	0.252
ZBED2 (zinc finger BED-type containing 2)	1	0.122	0.674	0.386	0.023	0.307
COLEC12 (collectin subfamily member 12)	1	0.102	0.127	0.345	0.0345	0.246
POLR1B (RNA polymerase I subunit B)	1	0.477	0.667	0.498	0.0476	0.379
C5orf22 (chromosome 5 open reading frame 22)	1	0.0959	0.345	0.389	0.0382	0.353
ALOX5 (arachidonate 5-lipoxygenase)	1	0.0841	0.4	0.194	0.00449	0.176
MINDY2 (MINDY lysine 48 deubiquitinase 2)	1	0.146	0.179	0.412	0.0539	0.256
TIMP2 (TIMP metallopeptidase inhibitor 2)	1	0.0644	0.121	0.244	0.0207	0.163
ACYP1 (acylphosphatase 1)	1	0.071	0.109	0.214	0.017	0.0949
RAD21 (RAD21 cohesin complex component)	1	0.15	0.69	0.322	0.0155	0.391
CCDC62 (coiled-coil domain containing 62)	1	0.0917	0.352	0.34	0.0464	0.235
BDH2 (3-hydroxybutyrate dehydrogenase 2)	1	0.222	0.315	0.679	0.0931	0.323
BORCS8-MEF2B (BORCS8-MEF2B readthrough)	1	0.0775	0.0673	0.257	0.00914	0.128
ZNF93 (zinc finger protein 93)	1	0.129	0.233	0.323	0.0305	0.217
PKN2 (protein kinase N2)	1	0.125	0.095	0.155	0.00495	0.193
OASL (2'-5'-oligoadenylate synthetase like)	1	0.147	0.183	0.271	0.0352	0.142
